From patent US20210130428A1 (Novartis, published 2021)
No constants are given. Whether binding was seen depends on the method and setting. Some results given as binding are weak or reduced against the parent protein; the word gives no strength.

The chains behind the UniProt entries cited, without tags or fusion partners. Residues count along the entry.
UniProt P22004, residues 382-513: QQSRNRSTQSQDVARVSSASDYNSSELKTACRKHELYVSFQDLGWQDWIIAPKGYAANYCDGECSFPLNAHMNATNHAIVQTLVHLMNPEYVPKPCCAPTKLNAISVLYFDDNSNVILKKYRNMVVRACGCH

Key:
[1] = target: human BMP6 (Bone Morphogenetic Protein 6) (human) (UniProt P22004); test: HDxMS
[2] = target: human BMP6 (Bone Morphogenetic Protein 6) (human) (UniProt P22004); test: ELISA binding assay
[3] = target: human BMP6 (Bone Morphogenetic Protein 6) (human) (UniProt P22004); test: ELISA binding assay, fluorescence signal intensity (anti-Fab-AP detection); one bar per antigen, antibody concentration not given

Measured: binding

B1: Antibody 7 (antibody, human IgG1, lambda, V domains shown)
VH: QVQLVESGGGLVKPGGSLRLSCAASGFTFSSYVVHWVRQAPGKGLEWVGRIRLETHGYAAEYAASVKGRFTISRDDSKNTLYLQMNSLKTEDTAVYYCARVERSKSGFDNWGQGTLVTVSS
VL: QSVLTQPPSVSGAPGQRVTISCTGSSSNIGAGYSVHWYQQLPGTAPKLLIYGQSERPSGVPDRFSGSKSGTSASLAITGLQAEDEADYYCQSWDSSQTLVVFGGGTKLTVLG
notes: also called Ab 7; Ab7
binds: all assays above
